Taken from: PubChem BioAssay AID1159590 (NIAID, 2016)
The whole screen tested 756 reagents; below is a random part of them. 128 of them (17%) count as active. 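Calls are two-sided: both reduced and increased p65 nuclear entry count as active.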 The numbers tell different reagents against one gene apart. The record does not give: the amount of reagent.

Aim: 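Which core TLR signalling genes NF-kB activation by Pam3CSK4 depends on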
Cell system: mouse RAW264.7 macrophage reporter cells expressing GFP-p65 and a Tnf promoter-mCherry
Reagent: single siRNA against mouse genes
Timing: 48 to 72 hours after siRNA transfection, then 40 minutes of ligand
Treatment: Pam3CSK4 (TLR2/1 agonist) for 40 minutes before fixation; dose not given
Measured: 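GFP-p65 nuclear to cytoplasmic intensity ratio from imaging, normalised per plate by median and MAD, given as robust z against negative controls, mean of replicates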
Scale: p65 nuclear entry z-score: higher = more p65 moved into nuclei than in negative-control wells
Active means: In these data the active calls have p65 nuclear entry z-score, replicate mean at about -1.5 or lower, or at about 1.5 or higher
Calls: active = strong change, up or down; inactive = little change

Ripk1 #1: p65 nuclear entry z-score, replicate mean = -0.654; Outcome = inactive
Ripk1 #2: p65 nuclear entry z-score, replicate mean = 0.282; Outcome = inactive
Ripk1 #3: p65 nuclear entry z-score, replicate mean = 0.621; Outcome = inactive
Ripk1 #4: p65 nuclear entry z-score, replicate mean = -1.29; Outcome = inactive
Ripk1 #5: p65 nuclear entry z-score, replicate mean = -0.0758; Outcome = inactive
Ripk1 #6: p65 nuclear entry z-score, replicate mean = 0.91; Outcome = inactive
Map3k14 #1: p65 nuclear entry z-score, replicate mean = -1.04; Outcome = inactive
Map3k14 #2: p65 nuclear entry z-score, replicate mean = 1.32; Outcome = inactive
Map3k14 #3: p65 nuclear entry z-score, replicate mean = -0.417; Outcome = inactive
Map3k14 #4: p65 nuclear entry z-score, replicate mean = -0.876; Outcome = inactive
Map3k14 #5: p65 nuclear entry z-score, replicate mean = 7.47; Outcome = active
Map3k14 #6: p65 nuclear entry z-score, replicate mean = 3.37; Outcome = active
Map3k7 #1: p65 nuclear entry z-score, replicate mean = -0.953; Outcome = inactive
Map3k7 #2: p65 nuclear entry z-score, replicate mean = -0.748; Outcome = inactive
Map3k7 #3: p65 nuclear entry z-score, replicate mean = -1.29; Outcome = inactive
Map3k7 #4: p65 nuclear entry z-score, replicate mean = -1.15; Outcome = inactive
Map3k7 #5: p65 nuclear entry z-score, replicate mean = -0.122; Outcome = inactive
Map3k7 #6: p65 nuclear entry z-score, replicate mean = -0.536; Outcome = inactive
Map2k3 #1: p65 nuclear entry z-score, replicate mean = -0.352; Outcome = inactive
Map2k3 #2: p65 nuclear entry z-score, replicate mean = 0.278; Outcome = inactive
Map2k3 #3: p65 nuclear entry z-score, replicate mean = 0.0695; Outcome = inactive
Map2k3 #4: p65 nuclear entry z-score, replicate mean = 2.39; Outcome = active
Map2k3 #5: p65 nuclear entry z-score, replicate mean = -0.993; Outcome = inactive
Map2k3 #6: p65 nuclear entry z-score, replicate mean = 0.842; Outcome = inactive
Crebbp #1: p65 nuclear entry z-score, replicate mean = -0.481; Outcome = inactive
Crebbp #2: p65 nuclear entry z-score, replicate mean = -1.28; Outcome = inactive
Crebbp #3: p65 nuclear entry z-score, replicate mean = -0.714; Outcome = inactive
Crebbp #4: p65 nuclear entry z-score, replicate mean = -0.554; Outcome = inactive
Crebbp #5: p65 nuclear entry z-score, replicate mean = 4.11; Outcome = active
Crebbp #6: p65 nuclear entry z-score, replicate mean = -0.0876; Outcome = inactive
Stat1 #1: p65 nuclear entry z-score, replicate mean = -0.316; Outcome = inactive
Stat1 #2: p65 nuclear entry z-score, replicate mean = 0.701; Outcome = inactive
Stat1 #3: p65 nuclear entry z-score, replicate mean = -2.08; Outcome = active
Stat1 #4: p65 nuclear entry z-score, replicate mean = -0.295; Outcome = inactive
Stat1 #5: p65 nuclear entry z-score, replicate mean = -1.42; Outcome = inactive
Stat1 #6: p65 nuclear entry z-score, replicate mean = 0.367; Outcome = inactive
Ptk2b #1: p65 nuclear entry z-score, replicate mean = 1.07; Outcome = inactive
Ptk2b #2: p65 nuclear entry z-score, replicate mean = 1.28; Outcome = inactive
Ptk2b #3: p65 nuclear entry z-score, replicate mean = -0.202; Outcome = inactive
Ptk2b #4: p65 nuclear entry z-score, replicate mean = 0.455; Outcome = inactive
Ptk2b #5: p65 nuclear entry z-score, replicate mean = 0.218; Outcome = inactive
Ptk2b #6: p65 nuclear entry z-score, replicate mean = -0.823; Outcome = inactive
Map3k1 #1: p65 nuclear entry z-score, replicate mean = 1.33; Outcome = inactive
Map3k1 #2: p65 nuclear entry z-score, replicate mean = -0.42; Outcome = inactive
Map3k1 #3: p65 nuclear entry z-score, replicate mean = -0.543; Outcome = inactive
Map3k1 #4: p65 nuclear entry z-score, replicate mean = -0.792; Outcome = inactive
Map3k1 #5: p65 nuclear entry z-score, replicate mean = 0.711; Outcome = inactive
Map3k1 #6: p65 nuclear entry z-score, replicate mean = 0.279; Outcome = inactive

Part of the list above, reformatted.
gene,siRNA no.,"p65 nuclear entry z-score, replicate mean",Outcome
Map3k14,1,-1.04,inactive
Map3k14,2,1.32,inactive
Map3k14,3,-0.417,inactive
Map3k14,4,-0.876,inactive
Map3k14,5,7.47,active
Map3k14,6,3.37,active
